From publication PMC13144348
Numbering of substitutions follows the chain as printed. In names and notes the source's numbering stands. Results are given in words; binding and its absence hold for the method and conditions named. Some results given as binding are weak or reduced against the parent protein; the word gives no strength. For some of these results: Where a sequence is shown, tags or fusion partners need not be part of it. Each block holds one binder with its values, some of them ahead of it.

Experiments:
[1] = target: T1, Ste4 (construct of Fig. S2A) (S. pombe) (UniProt P36622); experiment: two-hybrid; pGAD and pGBD plasmids co-transformed in AH109; growth on selective SD medium lacking histidine with 3-amino-1,2,4-triazole
T1 sequence: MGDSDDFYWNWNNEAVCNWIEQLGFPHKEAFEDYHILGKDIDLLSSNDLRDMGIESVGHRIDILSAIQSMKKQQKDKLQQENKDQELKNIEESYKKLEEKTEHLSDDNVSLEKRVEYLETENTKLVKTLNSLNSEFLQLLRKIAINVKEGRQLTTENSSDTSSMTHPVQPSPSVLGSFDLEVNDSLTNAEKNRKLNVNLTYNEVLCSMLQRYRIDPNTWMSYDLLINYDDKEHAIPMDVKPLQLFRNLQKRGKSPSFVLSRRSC

[2] = target: T2, Pil1-Ste4-mCherry (S. pombe) (UniProt P36622); experiment: Pil1 co-recruitment assay (microscopy); mCherry-tagged bait fused to Pil1 to target it to eisosomes; recruitment of the GFP-tagged prey assessed by microscopy in vegetative cells in MSL+N; Pearson correlation coefficient
T2 sequence: T1 sequence

binding [1]: binds
B1: MAP3K^Byr2 (construct of Fig. S2A) (protein, UniProt P28829 1-659)
chain: MEYYTSKEVAEWLKSIGLEKYIEQFSQNNIEGRHLNHLTLPLLKDLGIENTAKGKQFLKQRDYLREFPRPCILRFIACNGQTRAVQSRGDYQKTLAIALKKFSLEDASKFIVCVSQSSRIKLITEEEFKQICFNSSSPERDRLIIVPKEKPCPSFEDLRRSWEIELAQPAALSSQSSLSPKLSSVLPTSTQKRSVRSNNAKPFESYQRPPSELINSRISDFFPDHQPKLLEKTISNSLRRNLSIRTSQGHNLGNFGQEILPRSSRRARPSELVCPLSSLRISVAEDVNRLPRIDRGFDPPLTVSSTQRISRPPSLQKSITMVGVEPLYQSNGNEKSSKYNVFSESAHGNHQVLSFSPGSSPSFIEQPSPISPTSTTSEDTNTLEEDTDDQSIKWIRGALIGSGSFGQVYLGMNASSGELMAVKQVILDSVSESKDRHAKLLDALAGEIALLQELSHEHIVQYLGSNLNSDHLNIFLEYVPGGSVAGLLTMYGSFEETLVKNFIKQTLKGLEYLHSRGIVHRDIKGANILVDNKGKIKISDFGISKKLELNSTSTKTGGARPSFQGSSFWMAPEVVKQTMHTEKTDIWSLGCLVIEMLTSKHPYPNCDQMQAIFRIGENILPEFPSNISSSAIDFLEKTFAIDCNLRPTASELLSHPFVS

binding [1]: no binding
B2: Byr2^N28I (construct of Fig. S2A) (protein, UniProt P28829 1-659)
chain: B1 chain with N28I

binding [2]: binds
B3: MAP3K^Byr2, GFP-tagged (co-recruitment prey) (protein, UniProt P28829 1-659)
chain: B1 chain

binding [2]: no binding
B4: MAP3K^Byr2 N28I, GFP-tagged (co-recruitment prey) (protein, UniProt P28829 1-659)
chain: B1 chain with N28I
